Results are given in words; binding and its absence hold for the method and conditions named. Some entries that bind do so weakly or less than the wild type.

The test deals with T1, LIN-35 (C. elegans) (UniProt G5EDT1).
T1 sequence (looked up): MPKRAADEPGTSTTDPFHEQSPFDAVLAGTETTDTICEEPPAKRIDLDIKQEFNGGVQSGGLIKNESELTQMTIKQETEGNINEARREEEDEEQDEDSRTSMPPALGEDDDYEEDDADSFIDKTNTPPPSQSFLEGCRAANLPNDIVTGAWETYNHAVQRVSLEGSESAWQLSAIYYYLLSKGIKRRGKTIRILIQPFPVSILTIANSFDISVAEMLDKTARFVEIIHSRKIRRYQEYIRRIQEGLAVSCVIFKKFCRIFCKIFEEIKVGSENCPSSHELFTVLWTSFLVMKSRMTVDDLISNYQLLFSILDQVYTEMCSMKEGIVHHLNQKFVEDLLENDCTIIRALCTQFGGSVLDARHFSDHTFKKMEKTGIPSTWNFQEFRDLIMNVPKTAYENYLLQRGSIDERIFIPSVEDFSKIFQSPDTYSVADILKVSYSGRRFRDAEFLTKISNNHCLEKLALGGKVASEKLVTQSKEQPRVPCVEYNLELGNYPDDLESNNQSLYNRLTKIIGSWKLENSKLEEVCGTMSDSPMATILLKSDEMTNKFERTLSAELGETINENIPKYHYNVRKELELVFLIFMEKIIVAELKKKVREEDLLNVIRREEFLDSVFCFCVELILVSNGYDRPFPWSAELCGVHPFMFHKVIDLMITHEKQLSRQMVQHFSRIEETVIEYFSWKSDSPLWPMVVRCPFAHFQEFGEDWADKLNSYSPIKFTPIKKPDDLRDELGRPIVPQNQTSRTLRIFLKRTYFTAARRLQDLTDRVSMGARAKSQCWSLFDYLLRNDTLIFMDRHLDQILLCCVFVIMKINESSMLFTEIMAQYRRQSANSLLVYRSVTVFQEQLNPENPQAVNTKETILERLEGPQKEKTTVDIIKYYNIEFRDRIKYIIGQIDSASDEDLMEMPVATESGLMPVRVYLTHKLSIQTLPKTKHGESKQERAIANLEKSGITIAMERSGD
Nature of the test: yeast two-hybrid screen, LIN-35 as bait.

B1: LIN-8 polypeptide (protein)
chain: MSKIKTHSTGSKRTVPFYKLPPPVPLPPLPPPDPTRYFSTEKYIALSKDEKFKFDDYDVNDETLKKVVLNEIGKCPDIWSSRSQAAIMEHYPIVATETYRRTGLLLSIKSLKQIYKCGKDNLRNRLRVAIVSKRLTPAQVEAYMWRWEFYGFIRYYRDYTQRWEADLLKDLDVVLGLEARRASKNMEKVDSGELMEPMEPMDSTMDEMCVEEEPYEETGSNWSDPAPEPSQSKSQSPEAKYPQAYLLPEADEVYNPDDFYQEEHESASNAMYRIAFSQQYGGGGSPAVQKPVTFSAQPAPAPVREAPSPVVENVSSSSFTPKPPAMINNFGEEMNQITYQAIRIAREQPERLKLLRKALFDVVLAFDQKEYADVGDLYRDLAQKNS
B1: the binding entry was “binds”.

Source of the values: US20020137906A1.
